From patent US20030130799A1, “Structure/properties correlation with membrane affinity profile” (priority 2001, published 2003)
For at least one compound, name, drawing or mass did not settle the structure.

Test system: plasma proteins
Assay: Prediction of protein binding from IAM membrane affinity standard curve
Set-up: species or system human
Conditions: Table 3; predicted using IAM k′ data (FIG. 20)

In the case of `CNC(=C[N+](=O)[O-])NCCSCc1ccc(CN(C)C)o1` [Ranitidine], the “Protein Binding Predicted” value is reported as “Less than 40”.
